Results published in the supplement of paper PMC8728848.
The other results are listed elsewhere or left out.

Legend:
Assay in all cases: glycan array binding signal (z-score within array); higher = stronger binding
Settings in all cases: glycan notation: IUPAC condensed, linker removed
[1] = target: Gal(a1-3)[Gal(a1-4)]Gal(b1-4)GlcNAc
Method in brief: (§1)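 Negative Z-scores can be read as non-binding. The Z-score is calculated within each array and then averaged across arrays of one protein sequence at different concentrations or buffers and across linkers. Arrays, 3228 in all, were curated from the Consortium for Functional Glycomics database and kept only where the protein sequence was available.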

[2] = target: Gal(a1-4)Gal(b1-3)GlcNAc(b1-2)Man(a1-3)[Gal(a1-4)Gal(b1-3)GlcNAc(b1-2)Man(a1-6)]Man(b1-4)GlcNAc(b1-4)GlcNAc
Method in brief: as §1

Gal(a1-4)Gal(b1-4)Glc = target: Gal(a1-4)Gal(b1-4)Glc
Method in brief: as §1

Gal(a1-4)Gal(b1-4)GlcNAc = target: Gal(a1-4)Gal(b1-4)GlcNAc
Method in brief: as §1

[3] = target: Gal(a1-4)Gal(b1-4)GlcNAc(b1-2)Man(a1-3)[Gal(a1-4)Gal(b1-4)GlcNAc(b1-2)Man(a1-6)]Man(b1-4)GlcNAc(b1-4)GlcNAc
Method in brief: as §1

[4] = target: Gal(a1-4)Gal(b1-4)GlcNAc(b1-3)Gal(b1-4)Glc
Method in brief: as §1

Gal(a1-4)GlcNAc = target: Gal(a1-4)GlcNAc
Method in brief: as §1

Gal(a1-6)Glc = target: Gal(a1-6)Glc
Method in brief: as §1

Gal(b1-2)Gal = target: Gal(b1-2)Gal
Method in brief: as §1

Gal(b1-3)Gal = target: Gal(b1-3)Gal
Method in brief: as §1

Gal(b1-3)Gal(b1-4)GlcNAc = target: Gal(b1-3)Gal(b1-4)GlcNAc
Method in brief: as §1

Gal(b1-3)GalNAc = target: Gal(b1-3)GalNAc
Method in brief: as §1

[5] = target: Gal(b1-3)GalNAc(a1-3)[Fuc(a1-2)]Gal(b1-4)Glc
Method in brief: as §1

[6] = target: Gal(b1-3)GalNAc(a1-3)[Fuc(a1-2)]Gal(b1-4)GlcNAc
Method in brief: as §1

Gal(b1-3)GalNAc(b1-3)Gal = target: Gal(b1-3)GalNAc(b1-3)Gal
Method in brief: as §1

[7] = target: Gal(b1-3)GalNAc(b1-3)Gal(a1-4)Gal(b1-4)Glc
Method in brief: as §1

[8] = target: Gal(b1-3)GalNAc(b1-4)Gal(b1-4)Glc
Method in brief: as §1

[9] = target: Gal(b1-3)GalNAc(b1-4)[Neu5Ac(a2-3)]Gal(b1-4)Glc
Method in brief: as §1

Gal(b1-3)GlcNAc = target: Gal(b1-3)GlcNAc
Method in brief: as §1

[10] = target: Gal(b1-3)GlcNAc(a1-3)Gal(b1-4)GlcNAc
Method in brief: as §1

[11] = target: Gal(b1-3)GlcNAc(a1-6)Gal(b1-4)GlcNAc
Method in brief: as §1

Gal(b1-3)GlcNAc(b1-2)Man = target: Gal(b1-3)GlcNAc(b1-2)Man
Method in brief: as §1

[12] = target: Gal(b1-3)GlcNAc(b1-2)Man(a1-3)[Gal(b1-3)GlcNAc(b1-2)Man(a1-6)]Man(b1-4)GlcNAc(b1-4)GlcNAc
Method in brief: as §1

[13] = target: Gal(b1-3)GlcNAc(b1-2)Man(a1-3)[Gal(b1-3)GlcNAc(b1-2)Man(a1-6)]Man(b1-4)GlcNAc(b1-4)[Fuc(a1-6)]GlcNAc
Method in brief: as §1

[14] = target: Gal(b1-3)GlcNAc(b1-2)Man(a1-3)[GlcNAc(b1-4)][Gal(b1-3)GlcNAc(b1-2)Man(a1-6)]Man(b1-4)GlcNAc(b1-4)GlcNAc
Method in brief: as §1

[15] = target: Gal(b1-3)GlcNAc(b1-2)[Gal(b1-3)GlcNAc(b1-6)]Man(a1-6)[Gal(b1-3)GlcNAc(b1-2)Man(a1-3)]Man(b1-4)GlcNAc(b1-4)GlcNAc
Method in brief: as §1

[16] = target: Gal(b1-3)GlcNAc(b1-3)Gal(b1-3)GlcNAc
Method in brief: as §1

[17] = target: Gal(b1-3)GlcNAc(b1-3)Gal(b1-4)Glc
Method in brief: as §1

[18] = target: Gal(b1-3)GlcNAc(b1-3)Gal(b1-4)GlcNAc
Method in brief: as §1

[19] = target: Gal(b1-3)GlcNAc(b1-3)Gal(b1-4)GlcNAc(b1-2)Man(a1-3)[Gal(b1-3)GlcNAc(b1-3)Gal(b1-4)GlcNAc(b1-2)Man(a1-6)]Man(b1-4)GlcNAc(b1-4)GlcNAc
Method in brief: as §1

[20] = target: Gal(b1-3)GlcNAc(b1-3)Gal(b1-4)GlcNAc(b1-2)[Gal(b1-3)GlcNAc(b1-3)Gal(b1-4)GlcNAc(b1-6)]Man(a1-6)[Gal(b1-3)GlcNAc(b1-3)Gal(b1-4)GlcNAc(b1-2)Man(a1-3)]Man(b1-4)GlcNAc(b1-4)[Fuc(a1-6)]GlcNAc
Method in brief: as §1

[21] = target: Gal(b1-3)GlcNAc(b1-3)Gal(b1-4)GlcNAc(b1-3)Gal(b1-4)GlcNAc(b1-2)[Gal(b1-3)GlcNAc(b1-3)Gal(b1-4)GlcNAc(b1-3)Gal(b1-4)GlcNAc(b1-6)]Man(a1-6)[Gal(b1-3)GlcNAc(b1-3)Gal(b1-4)GlcNAc(b1-3)Gal(b1-4)GlcNAc(b1-2)Man(a1-3)]Man(b1-4)GlcNAc(b1-4)[Fuc(a1-6)]GlcNAc
Method in brief: as §1

[22] = target: Gal(b1-3)GlcNAc(b1-3)Gal(b1-4)GlcNAc(b1-6)[Gal(b1-3)GlcNAc(b1-3)]Gal(b1-4)Glc
Method in brief: as §1

[23] = target: Gal(b1-3)GlcNAc(b1-3)Gal(b1-4)[Fuc(a1-3)]GlcNAc
Method in brief: as §1

[24] = target: Gal(b1-3)GlcNAc(b1-3)Gal(b1-4)[Fuc(a1-3)]GlcNAc(b1-6)[Gal(b1-3)GlcNAc(b1-3)]Gal(b1-4)Glc
Method in brief: as §1

[25] = target: Gal(b1-3)GlcNAc(b1-3)GalNAc
Method in brief: as §1

[26] = target: Gal(b1-3)GlcNAc(b1-6)Gal(b1-4)GlcNAc
Method in brief: as §1

[27] = target: Gal(b1-3)GlcNAc(b1-6)GalNAc
Method in brief: as §1

B1: PX9937I-bfa-538-26-538 (Bacteroides fragilis) (protein)
chain: DKLDLSPIDYYGSGSYWKTEAQATAYIDGIHKHLRDAAWQHTITFGELRGGRFITGASSDGMGVSNGDIILQNFDETHTGVSKFGDLFGRITNLNLFIARVTDATYLSDEMKNFYLGEVYGLRAFYYFDLYRIYGGVPLRLTADVVEGVIDPNKLYMARSTPKEVMTQIKSDLNKSMEYFGNMNDFDPYKRGKKVYWSKAATECLMGEVYLWTSKVTTGDDVANPADLTIAKTHLESVLNNYNLKMLDDFSQVFNAKNKANDEIIFAIRFLEGEATNSNGTFTYNVGTGSTKNRYQANGEVFGDALDIQNTGNQTYEYNKAVYQNFDDADTRKEATFIASYNKDGKTGELSLYGTHVRKNIGYVNAQGARVYCGDYIFYRLPWVYLTLAEIANMEGDNAAVAKYINLVRKRAYGNAWDETLYAYPETADFTTNELAILHEKDKEFIQEGQRWWDLRRMTLTKGGTPLVFCKEGSLLGDAPILNKSTEAHKLLWPIEKTMLNKDPALEQTPGYK
- glycan array binding signal (z-score) [1]: -0.452
- glycan array binding signal (z-score) [2]: 4.73
- glycan array binding signal (z-score) (Gal(a1-4)Gal(b1-4)Glc): 0.308
- glycan array binding signal (z-score) (Gal(a1-4)Gal(b1-4)GlcNAc): -0.8
- glycan array binding signal (z-score) [3]: -0.905
- glycan array binding signal (z-score) [4]: -0.212
- glycan array binding signal (z-score) (Gal(a1-4)GlcNAc): 0.511
- glycan array binding signal (z-score) (Gal(a1-6)Glc): 0.008
- glycan array binding signal (z-score) (Gal(b1-2)Gal): 1.2
- glycan array binding signal (z-score) (Gal(b1-3)Gal): 0.342
- glycan array binding signal (z-score) (Gal(b1-3)Gal(b1-4)GlcNAc): 0.649
- glycan array binding signal (z-score) (Gal(b1-3)GalNAc): 0.242
- glycan array binding signal (z-score) [5]: -0.698
- glycan array binding signal (z-score) [6]: -0.45
- glycan array binding signal (z-score) (Gal(b1-3)GalNAc(b1-3)Gal): -0.724
- glycan array binding signal (z-score) [7]: 1.22
- glycan array binding signal (z-score) [8]: 0.698
- glycan array binding signal (z-score) [9]: -0.928
- glycan array binding signal (z-score) (Gal(b1-3)GlcNAc): -0.582
- glycan array binding signal (z-score) [10]: -0.328
- glycan array binding signal (z-score) [11]: -0.027
- glycan array binding signal (z-score) (Gal(b1-3)GlcNAc(b1-2)Man): -0.996
- glycan array binding signal (z-score) [12]: 0.667
- glycan array binding signal (z-score) [13]: 0.601
- glycan array binding signal (z-score) [14]: 1.19
- glycan array binding signal (z-score) [15]: -0.863
- glycan array binding signal (z-score) [16]: -0.01
- glycan array binding signal (z-score) [17]: 0.888
- glycan array binding signal (z-score) [18]: 0.512
- glycan array binding signal (z-score) [19]: -0.068
- glycan array binding signal (z-score) [20]: 1.49
- glycan array binding signal (z-score) [21]: 2.69
- glycan array binding signal (z-score) [22]: -0.639
- glycan array binding signal (z-score) [23]: -0.267
- glycan array binding signal (z-score) [24]: -0.436
- glycan array binding signal (z-score) [25]: -0.613
- glycan array binding signal (z-score) [26]: -0.135
- glycan array binding signal (z-score) [27]: 0.517
